Experimental data reported in PMC5209718, “Piscidin-1-analogs with double L- and D-lysine residues exhibited different conformations in lipopolysaccharide but comparable anti-endotoxin activities” (Scientific Reports, 2017).
Residues, ends and D or L forms follow the SMILES beside them.

Test system: hRBCs versus E. coli (ATCC 25922)
Format: cell-based
Conditions: HC50 hRBCs / MIC E. coli (ATCC 25922); for fold higher therapeutic index than piscidin-1: relative to piscidin-1

Compound | Therapeutic Index (HC50/MIC) | fold higher therapeutic index than piscidin-1
CC[C@H](C)[C@H](NC(=O)CNC(=O)[C@H](CCCNC(=N)N)NC(=O)[C@H](Cc1ccccc1)NC(=O)[C@@H](NC(=O)[C@H](Cc1c[nH]cn1)NC(=O)[C@H](Cc1c[nH]cn1)NC(=O)[C@H](Cc1ccccc1)NC(=O)[C@@H](N)Cc1ccccc1)[C@@H](C)CC)C(=O)N[C@H](C(=O)N[C@@H](Cc1c[nH]cn1)C(=O)N[C@H](C(=O)NCC(=O)N[C@@H](CCCCN)C(=O)N[C@H](CCCCN)C(=O)N[C@H](C(=O)N[C@@H](Cc1c[nH]cn1)C(=O)N[C@@H](CCCNC(=N)N)C(=O)N[C@@H](CC(C)C)C(=O)N[C@H](C(=O)N[C@H](CCCCN)C(=O)NCC(N)=O)C(C)C)[C@@H](C)CC)C(C)C)C(C)C [T15,21dK Piscidin-1] (HELM PEPTIDE1{F.F.H.H.I.F.R.G.I.V.H.V.G.K.[dK].I.H.R.L.V.[dK].G.[am]}$$$$V2.0) | 100 | ~ 20 fold
H-FFHHIFRGIVHVGKKIHRLVKG-NH2 [T15,21K Piscidin-1] | 100 | ~ 20 fold
